# These are yes or no findings as the source states them, for the method shown. Some entries that bind do so weakly or less than the wild type.
# T1: zebrafish aplnra (zebrafish) (UniProt Q7SZP9)
# T1 sequence (looked up): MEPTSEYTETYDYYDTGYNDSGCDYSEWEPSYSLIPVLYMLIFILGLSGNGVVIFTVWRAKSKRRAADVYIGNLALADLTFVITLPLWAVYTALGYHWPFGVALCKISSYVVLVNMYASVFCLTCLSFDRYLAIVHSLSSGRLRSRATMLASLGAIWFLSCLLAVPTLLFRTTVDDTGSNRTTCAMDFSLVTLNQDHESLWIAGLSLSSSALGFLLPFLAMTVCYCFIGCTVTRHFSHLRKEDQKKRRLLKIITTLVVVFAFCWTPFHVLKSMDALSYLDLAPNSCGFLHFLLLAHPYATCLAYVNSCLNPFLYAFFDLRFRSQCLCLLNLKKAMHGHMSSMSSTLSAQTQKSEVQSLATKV
# Experiments:
# [1] = target: T1, zebrafish aplnra (zebrafish); assay: AP-ELA binding assay on transfected 293T cells (FIG. 7G)
# [2] = target: T1, zebrafish aplnra (zebrafish); assay: AP-ELA binding assay on transfected HEK293T cells, chromogenic alkaline phosphatase read-out
binder,measurement,setting,value
"QRPVNLTMRRKLRKHNCLQRRCMPLHSRVPFP (peptide, not shown: large carriers) [ELA conjugated to Alkaline Phosphatase (AP-ELA)]",binding,[1],binds
same,binding,[2],binds

# From patent US20150153365A1
